The record followed here is the supplement of paper PMC10849652.

Amino acid sequences for entries named in this document (tags omitted). A change or cut given only in a name is not applied to a line headed by its entry.
UniProt O95248: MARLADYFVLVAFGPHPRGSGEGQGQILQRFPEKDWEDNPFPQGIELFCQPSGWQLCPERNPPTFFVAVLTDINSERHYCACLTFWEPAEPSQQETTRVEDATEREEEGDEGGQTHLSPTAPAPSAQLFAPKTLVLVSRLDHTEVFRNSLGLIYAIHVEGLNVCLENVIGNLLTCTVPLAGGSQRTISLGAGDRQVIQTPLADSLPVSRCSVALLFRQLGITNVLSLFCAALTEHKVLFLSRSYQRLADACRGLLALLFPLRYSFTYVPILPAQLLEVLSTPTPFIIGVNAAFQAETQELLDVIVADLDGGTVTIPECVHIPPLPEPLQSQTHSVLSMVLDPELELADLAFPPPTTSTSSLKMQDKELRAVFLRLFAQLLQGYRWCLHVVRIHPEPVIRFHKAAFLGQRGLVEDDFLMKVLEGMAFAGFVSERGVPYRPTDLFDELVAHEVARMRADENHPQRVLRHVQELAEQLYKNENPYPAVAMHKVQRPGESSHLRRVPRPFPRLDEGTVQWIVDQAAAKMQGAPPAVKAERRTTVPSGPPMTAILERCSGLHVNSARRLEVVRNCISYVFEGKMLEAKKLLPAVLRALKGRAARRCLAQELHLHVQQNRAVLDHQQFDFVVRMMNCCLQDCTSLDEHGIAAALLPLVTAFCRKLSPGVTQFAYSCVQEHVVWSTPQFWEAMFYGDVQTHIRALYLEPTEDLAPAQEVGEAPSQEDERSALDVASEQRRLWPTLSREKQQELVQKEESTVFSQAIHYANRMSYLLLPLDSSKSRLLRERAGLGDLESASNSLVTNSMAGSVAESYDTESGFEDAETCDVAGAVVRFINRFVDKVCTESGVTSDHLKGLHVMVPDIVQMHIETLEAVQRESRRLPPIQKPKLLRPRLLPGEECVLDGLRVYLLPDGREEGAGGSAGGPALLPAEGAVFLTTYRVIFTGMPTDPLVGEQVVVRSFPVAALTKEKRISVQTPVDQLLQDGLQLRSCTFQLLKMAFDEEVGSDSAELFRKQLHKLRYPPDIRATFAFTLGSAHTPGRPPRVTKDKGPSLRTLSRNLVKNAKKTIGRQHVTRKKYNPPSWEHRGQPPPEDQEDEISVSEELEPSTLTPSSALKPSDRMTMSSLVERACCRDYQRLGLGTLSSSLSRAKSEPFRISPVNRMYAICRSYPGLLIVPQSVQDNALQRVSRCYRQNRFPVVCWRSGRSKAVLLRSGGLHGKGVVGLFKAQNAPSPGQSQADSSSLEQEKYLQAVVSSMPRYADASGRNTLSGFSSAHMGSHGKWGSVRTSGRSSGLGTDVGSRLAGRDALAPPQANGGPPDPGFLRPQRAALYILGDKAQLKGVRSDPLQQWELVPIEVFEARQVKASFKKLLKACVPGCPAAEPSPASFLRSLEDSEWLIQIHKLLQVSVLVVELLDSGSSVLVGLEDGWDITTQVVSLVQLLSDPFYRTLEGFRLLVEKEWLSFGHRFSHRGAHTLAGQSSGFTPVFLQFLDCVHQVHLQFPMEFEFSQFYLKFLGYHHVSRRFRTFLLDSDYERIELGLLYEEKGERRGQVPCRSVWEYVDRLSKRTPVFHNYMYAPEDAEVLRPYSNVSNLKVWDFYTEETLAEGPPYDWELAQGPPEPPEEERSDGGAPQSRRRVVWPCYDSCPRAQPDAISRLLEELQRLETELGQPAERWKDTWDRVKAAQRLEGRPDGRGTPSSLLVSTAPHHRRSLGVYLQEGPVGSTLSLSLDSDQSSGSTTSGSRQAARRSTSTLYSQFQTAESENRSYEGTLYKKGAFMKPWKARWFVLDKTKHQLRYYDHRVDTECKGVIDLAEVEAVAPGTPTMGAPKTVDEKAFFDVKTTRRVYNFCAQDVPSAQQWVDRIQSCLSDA
UniProt P31949: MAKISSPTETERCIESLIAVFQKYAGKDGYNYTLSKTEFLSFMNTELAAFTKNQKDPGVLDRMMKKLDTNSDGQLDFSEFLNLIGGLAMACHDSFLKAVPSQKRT
UniProt Q8WU76: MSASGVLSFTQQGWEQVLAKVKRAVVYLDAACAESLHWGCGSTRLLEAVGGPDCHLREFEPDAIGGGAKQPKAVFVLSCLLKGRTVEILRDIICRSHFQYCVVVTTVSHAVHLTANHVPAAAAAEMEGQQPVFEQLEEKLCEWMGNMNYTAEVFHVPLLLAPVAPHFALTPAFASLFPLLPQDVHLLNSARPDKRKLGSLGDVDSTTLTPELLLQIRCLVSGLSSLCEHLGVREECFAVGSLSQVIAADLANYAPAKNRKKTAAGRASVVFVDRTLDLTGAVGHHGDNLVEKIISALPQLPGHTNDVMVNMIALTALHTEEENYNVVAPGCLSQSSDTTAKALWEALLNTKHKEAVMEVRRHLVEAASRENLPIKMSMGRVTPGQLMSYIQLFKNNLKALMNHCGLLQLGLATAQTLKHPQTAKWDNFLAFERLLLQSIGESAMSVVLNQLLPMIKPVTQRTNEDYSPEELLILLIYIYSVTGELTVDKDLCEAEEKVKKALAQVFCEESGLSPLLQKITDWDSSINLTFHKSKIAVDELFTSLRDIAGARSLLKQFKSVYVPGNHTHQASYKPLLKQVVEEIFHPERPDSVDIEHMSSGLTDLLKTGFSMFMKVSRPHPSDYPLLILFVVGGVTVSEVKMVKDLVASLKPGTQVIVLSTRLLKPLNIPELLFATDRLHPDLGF
UniProt Q8WTV0: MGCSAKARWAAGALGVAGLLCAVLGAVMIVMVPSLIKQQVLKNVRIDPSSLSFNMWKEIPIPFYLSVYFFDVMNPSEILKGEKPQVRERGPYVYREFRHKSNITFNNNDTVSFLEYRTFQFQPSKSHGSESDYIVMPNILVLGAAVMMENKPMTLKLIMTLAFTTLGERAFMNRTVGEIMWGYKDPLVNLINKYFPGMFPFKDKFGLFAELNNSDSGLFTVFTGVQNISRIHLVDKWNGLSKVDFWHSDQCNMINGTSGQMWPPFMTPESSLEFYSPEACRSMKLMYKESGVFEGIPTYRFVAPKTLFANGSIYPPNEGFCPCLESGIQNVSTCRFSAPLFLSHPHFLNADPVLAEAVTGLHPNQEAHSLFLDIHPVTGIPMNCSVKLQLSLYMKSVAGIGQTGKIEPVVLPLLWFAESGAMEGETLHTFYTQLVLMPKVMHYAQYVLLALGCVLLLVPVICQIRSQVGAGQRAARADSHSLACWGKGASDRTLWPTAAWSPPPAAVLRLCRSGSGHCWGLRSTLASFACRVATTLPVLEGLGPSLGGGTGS
UniProt Q9BRK5: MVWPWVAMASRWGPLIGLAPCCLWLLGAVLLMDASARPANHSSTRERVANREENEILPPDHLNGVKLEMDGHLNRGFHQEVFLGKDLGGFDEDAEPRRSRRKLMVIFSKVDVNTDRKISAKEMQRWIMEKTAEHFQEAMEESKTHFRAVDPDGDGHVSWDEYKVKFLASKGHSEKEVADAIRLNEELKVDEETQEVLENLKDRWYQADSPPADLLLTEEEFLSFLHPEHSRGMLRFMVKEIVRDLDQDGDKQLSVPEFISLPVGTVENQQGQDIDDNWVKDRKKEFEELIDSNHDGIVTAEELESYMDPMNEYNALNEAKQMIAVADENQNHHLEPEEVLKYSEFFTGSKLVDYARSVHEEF
UniProt O75880: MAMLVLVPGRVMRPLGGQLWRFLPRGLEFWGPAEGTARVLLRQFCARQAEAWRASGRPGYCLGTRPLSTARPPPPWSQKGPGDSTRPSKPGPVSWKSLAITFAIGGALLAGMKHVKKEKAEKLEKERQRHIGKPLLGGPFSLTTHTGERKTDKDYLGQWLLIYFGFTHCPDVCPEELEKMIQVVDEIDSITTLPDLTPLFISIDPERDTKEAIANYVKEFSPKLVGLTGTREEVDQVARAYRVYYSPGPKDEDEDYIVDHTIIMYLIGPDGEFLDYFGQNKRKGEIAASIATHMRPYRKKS
UniProt P31040: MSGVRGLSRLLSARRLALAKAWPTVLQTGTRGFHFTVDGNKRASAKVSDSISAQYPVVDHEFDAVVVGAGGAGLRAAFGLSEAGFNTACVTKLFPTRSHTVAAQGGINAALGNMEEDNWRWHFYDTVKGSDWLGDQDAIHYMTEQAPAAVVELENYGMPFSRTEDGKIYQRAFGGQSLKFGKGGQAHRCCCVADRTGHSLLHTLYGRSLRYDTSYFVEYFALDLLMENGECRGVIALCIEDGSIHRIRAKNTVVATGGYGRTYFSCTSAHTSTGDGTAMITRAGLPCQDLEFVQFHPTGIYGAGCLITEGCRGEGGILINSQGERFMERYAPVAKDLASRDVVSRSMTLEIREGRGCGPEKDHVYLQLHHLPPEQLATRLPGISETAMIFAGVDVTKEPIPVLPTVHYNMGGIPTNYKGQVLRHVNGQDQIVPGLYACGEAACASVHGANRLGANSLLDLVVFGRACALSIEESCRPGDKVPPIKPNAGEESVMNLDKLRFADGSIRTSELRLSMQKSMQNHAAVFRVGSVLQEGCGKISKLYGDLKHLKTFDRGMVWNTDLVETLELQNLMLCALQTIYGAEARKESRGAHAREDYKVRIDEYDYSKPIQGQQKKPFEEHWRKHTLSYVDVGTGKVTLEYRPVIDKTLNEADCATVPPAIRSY
UniProt A3KN83: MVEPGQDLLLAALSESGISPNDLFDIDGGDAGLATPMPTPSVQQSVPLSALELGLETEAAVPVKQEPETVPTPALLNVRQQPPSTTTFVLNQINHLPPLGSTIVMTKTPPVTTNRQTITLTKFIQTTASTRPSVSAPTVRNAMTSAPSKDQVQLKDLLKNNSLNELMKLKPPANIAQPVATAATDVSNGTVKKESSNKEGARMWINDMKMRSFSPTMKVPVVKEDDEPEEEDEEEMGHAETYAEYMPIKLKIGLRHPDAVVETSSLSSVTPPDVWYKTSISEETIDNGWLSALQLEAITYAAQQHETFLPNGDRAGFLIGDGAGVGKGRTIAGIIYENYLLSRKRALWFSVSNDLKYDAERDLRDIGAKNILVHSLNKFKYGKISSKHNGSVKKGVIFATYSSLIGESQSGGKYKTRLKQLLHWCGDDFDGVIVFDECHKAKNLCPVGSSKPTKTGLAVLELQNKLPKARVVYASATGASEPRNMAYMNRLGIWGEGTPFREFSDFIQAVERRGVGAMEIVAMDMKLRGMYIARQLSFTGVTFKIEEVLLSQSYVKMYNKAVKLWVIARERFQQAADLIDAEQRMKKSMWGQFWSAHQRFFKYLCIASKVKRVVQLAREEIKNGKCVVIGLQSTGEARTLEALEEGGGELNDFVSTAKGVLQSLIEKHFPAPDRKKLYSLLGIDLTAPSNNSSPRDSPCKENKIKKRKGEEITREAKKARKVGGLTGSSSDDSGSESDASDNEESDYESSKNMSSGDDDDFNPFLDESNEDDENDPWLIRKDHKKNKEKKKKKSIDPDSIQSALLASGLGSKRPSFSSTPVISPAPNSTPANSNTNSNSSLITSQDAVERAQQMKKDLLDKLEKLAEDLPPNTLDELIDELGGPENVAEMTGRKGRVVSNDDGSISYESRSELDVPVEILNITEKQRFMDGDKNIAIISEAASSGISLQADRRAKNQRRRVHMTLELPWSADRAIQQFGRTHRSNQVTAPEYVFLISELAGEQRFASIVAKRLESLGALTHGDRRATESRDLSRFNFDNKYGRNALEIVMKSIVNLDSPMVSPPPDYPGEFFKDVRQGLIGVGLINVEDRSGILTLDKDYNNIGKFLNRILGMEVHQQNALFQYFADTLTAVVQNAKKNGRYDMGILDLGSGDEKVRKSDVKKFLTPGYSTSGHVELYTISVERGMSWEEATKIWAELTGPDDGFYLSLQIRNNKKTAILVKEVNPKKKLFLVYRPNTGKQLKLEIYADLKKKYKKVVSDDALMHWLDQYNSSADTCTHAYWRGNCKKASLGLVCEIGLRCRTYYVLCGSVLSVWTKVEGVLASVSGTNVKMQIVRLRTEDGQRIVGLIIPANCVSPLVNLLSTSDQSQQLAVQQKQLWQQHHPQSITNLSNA
UniProt P25815: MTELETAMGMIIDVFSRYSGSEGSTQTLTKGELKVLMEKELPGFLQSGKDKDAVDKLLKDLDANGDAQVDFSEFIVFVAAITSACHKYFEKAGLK
UniProt P22307: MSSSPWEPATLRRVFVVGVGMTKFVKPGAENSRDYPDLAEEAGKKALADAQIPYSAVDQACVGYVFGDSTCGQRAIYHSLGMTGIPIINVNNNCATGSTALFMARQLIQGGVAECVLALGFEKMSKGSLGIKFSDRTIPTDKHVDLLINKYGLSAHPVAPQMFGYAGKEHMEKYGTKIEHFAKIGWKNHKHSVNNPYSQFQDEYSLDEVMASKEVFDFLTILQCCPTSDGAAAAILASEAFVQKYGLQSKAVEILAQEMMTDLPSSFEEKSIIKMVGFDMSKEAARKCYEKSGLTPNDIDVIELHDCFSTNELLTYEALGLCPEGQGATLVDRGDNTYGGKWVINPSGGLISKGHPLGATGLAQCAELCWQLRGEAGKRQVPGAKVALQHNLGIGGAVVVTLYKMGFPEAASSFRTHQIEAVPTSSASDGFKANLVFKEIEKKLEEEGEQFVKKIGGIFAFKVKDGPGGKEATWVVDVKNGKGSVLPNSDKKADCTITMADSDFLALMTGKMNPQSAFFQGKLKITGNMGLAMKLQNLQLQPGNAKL

Some of the results follow.

Compound in the first assay: Cn1cncc1[C@@](N)(c1ccc(Cl)cc1)c1ccc2c(c1)c(-c1cccc(Cl)c1)cc(=O)n2C [tipifarnib]
The assay can be described thus: log2 fold change, soluble protein after heating vs DMSO (PISA); higher = thermal stabilisation; K562 cells, 10 uM, 30 min; active = over 0.2 and 3.5 SD of the protein, either way, in both replicates (recomputed). A digest of the protocol:
(§1)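 Aliquots of K562 cells (2×10^6 cells/mL) treated with 10 μM compound for 30 min were heated for 3 min over 48°C-58°C. After pooling and extraction in PBS with 0.5% NP-40 at 4°C, soluble protein from a 21,000xg, 90 min spin was quantified by TMTpro 16plex LC-MS/MS with channel sums equalised. Thermal stability is expressed against control samples, from duplicates, as a log2 fold change.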
Take SBF1 isoform 4 (UniProt O95248): the log2 fold change was inactive: 0.003.

Take SARG (UniProt Q9BW04): the log2 fold change was inactive: 0.02.

With SAR1A (UniProt Q9NR31), the log2 fold change is inactive: -0.107.

S100A11 (UniProt P31949): the log2 fold change is inactive: -0.082.

As for SAP30BP (UniProt Q9UHR5), the log2 fold change was inactive: 0.

Take SAR1B (UniProt Q9Y6B6): the log2 fold change was inactive: -0.102.

Compound in a further assay: FC(F)(F)c1ccc(/C=C/c2nc(COc3ccc(CCCCn4ccnn4)cc3)co2)cc1 [mubritinib]
The description is as above. The procedure, abridged: as §1
For the target SCFD2 (UniProt Q8WU76), the log2 fold change is inactive: -0.047.

With SCARB1 isoform 2 (UniProt Q8WTV0), the log2 fold change is inactive: 0.034.

Consider RWDD1 (UniProt Q9H446), for which the log2 fold change was inactive: 0.027.

As for SCIN (UniProt Q9Y6U3), the log2 fold change was inactive: 0.028.

With SDF4 (UniProt Q9BRK5), the log2 fold change was inactive: -0.031.

On to RYBP (UniProt Q8N488), for which the log2 fold change is inactive: 0.094.

On to SCO1 (UniProt O75880), for which the log2 fold change was inactive: 0.023.

Consider SACS (UniProt Q9NZJ4), for which the log2 fold change is inactive: 0.093.

With RTRAF (UniProt Q9Y224), the log2 fold change is inactive: -0.06.

With SCYL1 (UniProt Q96KG9), the log2 fold change is inactive: 0.036.

For S100A6 (UniProt P06703), the log2 fold change is inactive: -0.026.

On to SDHA (UniProt P31040), for which the log2 fold change is inactive: 0.015.

As to RSBN1L (UniProt Q6PCB5), the log2 fold change is inactive: -0.177.

Take RUVBL1 (UniProt Q9Y265): the log2 fold change was inactive: -0.004.

For SDHAF3 (UniProt Q9NRP4), the log2 fold change is inactive: 0.059.

On to SBNO1 (UniProt A3KN83), for which the log2 fold change is inactive: 0.038.

As to SCLY (UniProt Q96I15), the log2 fold change is inactive: -0.008.

On to S100P (UniProt P25815), for which the log2 fold change is inactive: 0.003.

In the case of SCP2 (UniProt P22307), the log2 fold change is inactive: 0.035.

With SCAMP4 (UniProt Q969E2), the log2 fold change is inactive: 0.173.

In the case of SCARB2 (UniProt Q14108), the log2 fold change is inactive: -0.011.

SCAP (UniProt Q12770): the log2 fold change was inactive: 0.011.

Take SEC24D isoform 2 (UniProt O94855): the log2 fold change was inactive: 0.086.

With RRP15 (UniProt Q9Y3B9), the log2 fold change is inactive: -0.009.

For the target SBF1 isoform 4 (UniProt O95248), the log2 fold change is inactive: -0.145.

With SARG (UniProt Q9BW04), the log2 fold change was inactive: 0.001.

In the case of SAR1A (UniProt Q9NR31), the log2 fold change is inactive: 0.207.

S100A11 (UniProt P31949): the log2 fold change was inactive: 0.052.

Turning to SAP30BP (UniProt Q9UHR5), the log2 fold change is inactive: 0.023.

Regarding SAR1B (UniProt Q9Y6B6), the log2 fold change was inactive: 0.09.
